Data reported in PubChem BioAssay AID504444 (National Center for Advancing Translational Sciences (NCATS), 2011).
“And” between values parts separate entries of the source, which are not always exact repeats. Equal entries are not always repeated. The whole screen tested about 360,000 compounds, of which about 7,500 (2.1%) were called active. The shares of active, inactive and inconclusive entries below differ from those in the screen. Calls come from the whole dose curve; as a rule, active = well fitted inhibition curve with a large enough effect; inconclusive = small, poorly fitted or top-dose-only effect, or effect the other way; inactive = flat fitted curve, though single readings scatter. A potency beside an inconclusive call is a rough fit, not a confirmed value.

assay: Nrf2 qHTS screen for inhibitors; details: A549 ARE-Fluc reporter, luciferase luminescence, 18-24 h; activity change, negative = inhibition: at 46 µM (top of the series); note: nearly all actives have a fitted effect of over 60% in size
Procedure, shortened: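 Concentration-response testing used A549 ARE_Fluc cells at 5000 cells/well. Following an 18-24 h compound incubation, viability was read by fluorescence (Ex 405/Em 525) and luciferase output by luminescence.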
% is set by controls: 0 for no effect and ±100 for the full control effect; potency is the fitted concentration of half-maximal effect.

Row | SMILES | Potency | activity change, negative = inhibition
1 | O=C1C(N2CCOCC2)=C(n2nnc3ccccc32)C(=O)c2ccccc21 | active: 23.1 µM | –
2 | c1ccc2oc(SCc3cn4ccccc4n3)nc2c1 | inconclusive: 0.92 µM [activator, partial curve, poor fit] | –
3 | COc1ccccc1OCCNC(=O)c1ccc(C(C)(C)C)cc1 | inconclusive: 2.91 µM [activator, full curve] | –
4 | COc1cccc(N2CCN(C(=O)c3cnc4c(-c5ccccc5)c(C)nn4c3C)CC2)c1 | inconclusive: 29.1 µM [activator, single point] | –
5 | CCCCNC(=O)c1ccc2c(c1)N(CC)C(=O)c1ccccc1S2(=O)=O | inconclusive: 3.26 µM [falling, partial curve, poor fit] | –
6 | CCOc1cc(/C=N/NC(=O)c2nn(C)cc2Br)ccc1OCc1ccccc1Cl | inconclusive: 23.1 µM [falling, single point] | –
7 | COc1ccc(-c2cc(C)no2)cc1S(=O)(=O)N1CCN(c2cccc(C)c2)C(C)C1 (stereo not drawn) | inconclusive: 20.6 µM [falling, partial curve, poor fit] | –
8 | OC(CSc1ccccc1Cl)CN1CCN(c2ccccc2F)CC1 (stereo not drawn) | inconclusive: 29.1 µM [falling, single point] | –
9 | Cc1nnc(-c2ccc(Cl)cc2)nc1NCCN(C)C | inconclusive: 18.4 µM [activator, single point] | –
10 | Cc1ccsc1/C=N/NC(=O)c1ccc(-n2cccc2)cc1 | inconclusive: 2.06 µM [activator, partial curve] | –
11 | O=C(c1c(O)cc(O)cc1O)C1c2c(cc(O)c3c2O[C@H](c2ccc(O)cc2)[C@@H](O)C3)OC1c1ccc(O)cc1 (stereo partly drawn) | – | inactive: 4.13%
12 | C/C(=N\NC(=O)CSc1nc2ccccc2s1)c1cccnc1 | inconclusive: 18.4 µM [falling, partial curve, poor fit] | –
13 | CCOc1ccc(N2CC(C(=O)Nc3nnc(Cc4ccccc4)s3)CC2=O)cc1 (stereo not drawn) | inconclusive: 8.2 µM [falling, partial curve, poor fit] | –
14 | CSc1ccc(C2c3[nH]c4ccccc4c3CCN2C(=O)c2ccnn2C)cc1 (stereo not drawn) | inconclusive: 16.4 µM [activator, partial curve] | –
15 | O=C(Cn1c(=O)n(-c2ccccc2)c(=O)c2c3c(sc21)CCC3)c1ccc(F)cc1 | inconclusive: 6.51 µM [activator, single point] | –
16 | O=C(NCc1ccccc1)c1ccc2c(c1)N(Cc1ccccc1F)C(=O)c1ccccc1S2=O (stereo not drawn) | – | inactive: -26.9%
17 | Cc1cccc(C2c3[nH]c4ccccc4c3CCN2C(=O)c2nn(C)c(=O)c3ccccc23)n1 (stereo not drawn) | inconclusive: 29.1 µM [falling, partial curve, poor fit] | –
18 | Nc1cc(Oc2cccnc2)cc([N+](=O)[O-])c1 | inconclusive: 0.0411 µM [falling, partial curve, poor fit] | –
19 | C/C(=N/NC(=O)c1ccncc1)c1ccccc1 | inconclusive: 20.6 µM [activator, single point] | –
20 | Oc1c(N=NC(=S)Nc2ccccc2F)c2ccccc2n1Cc1ccc(Cl)cc1 | inconclusive: 23.1 µM [falling, partial curve, poor fit] | –
21 | N#Cc1cc2cc3ccccc3nc2n2c(=O)c3ccccc3nc12 | inconclusive: 7.31 µM [falling, partial curve, poor fit] | –

An excerpt of these results, as tab-separated lines.
Row	SMILES	Potency	activity change, negative = inhibition
10	Cc1ccsc1/C=N/NC(=O)c1ccc(-n2cccc2)cc1	inconclusive: 2.06 µM [activator, partial curve]	–
16	O=C(NCc1ccccc1)c1ccc2c(c1)N(Cc1ccccc1F)C(=O)c1ccccc1S2=O (stereo not drawn)	–	inactive: -26.9%
20	Oc1c(N=NC(=S)Nc2ccccc2F)c2ccccc2n1Cc1ccc(Cl)cc1	inconclusive: 23.1 µM [falling, partial curve, poor fit]	–

The results go on:

Row | SMILES | Potency | activity change, negative = inhibition
22 | O=C(Nc1ccc(Cl)cc1)c1cnn2c1NC(c1ccccc1)=CC2c1ccccc1 (stereo not drawn) | inconclusive: 29.1 µM [falling, single point] | –
23 | CC(O)CNCCNCc1c(OCc2ccccc2)ccc2ccccc12 (stereo not drawn) | inconclusive: 23.1 µM [activator, single point] | –
24 | O=C(COc1ccccc1)Nc1cc(C(F)(F)F)ccc1N1CCCC1 | inconclusive: 29.1 µM [falling, single point] | –
25 | O=S(=O)(Nc1cc(Cl)ccc1-n1cncn1)c1ccc(F)cc1 | inconclusive: 18.4 µM [falling, partial curve, poor fit] | –
26 | CC12CCC(=O)C=C1CCC1C3CC(O)C(O)(C(=O)CO)C3(C)CC(O)C12F (stereo not drawn) | active: 0.103 µM | –
27 | [O-][n+]1c2ccccc2[n+]([O-])c2cc(O)ccc21 | inconclusive: 18.4 µM [falling, single point] | –
28 | CC(=O)N(C)N1c2ccccc2CCc2ccccc21 | inconclusive: 18.4 µM [falling, single point] | –
29 | O=C(N/N=C/c1ccc(F)cc1)c1cccc(NC(=O)c2ccccc2Cl)c1 | – | inactive: -0.307%
30 | O=C1CC(C(=O)O)C2(CCCC2)O1 (stereo not drawn) | inconclusive: 0.58 µM [activator, full curve, poor fit] | –
31 | COc1cc(OC)cc(C(=O)NC(=S)Nc2ccc(Cl)c(C(=O)O)c2)c1 | – | inactive: 1.28%
32 | O=C(CSc1nnc(-c2ccccn2)n1Cc1ccco1)c1ccc(-c2ccccc2)cc1 | inconclusive: 29.1 µM [falling, single point] | –
33 | Fc1cccc(F)c1[B-](F)(F)F | inconclusive: 0.731 µM [activator, full curve, poor fit] | –
34 | CCN(CC)c1ccc(NC(=O)c2c(C)nn(-c3ccc(F)cc3)c2-n2cccc2)c(C)c1 | inconclusive: 29.1 µM [falling, single point] | –
35 | CCN(Cc1ccncc1)S(=O)(=O)c1ccc(C(C)=O)cc1 | inconclusive: 13 µM [falling, partial curve, poor fit] | –
36 | Cc1cc(NC(=O)c2cncc(Br)c2)ccc1NC(=O)c1cc2ccccc2o1 | active: 13 µM | –
37 | Fc1ccccc1Nc1c2c(nc3ccccc13)CCC2 | inconclusive: 14.6 µM [activator, partial curve] | –
38 | COc1ccc(-c2cc(=O)oc3cc(OCC(=O)NCc4ccccn4)ccc23)cc1 | inconclusive: 7.31 µM [falling, partial curve] | –
39 | O=C(NCc1cccnc1)C1CCC(CNS(=O)(=O)c2cccc3nsnc23)CC1 (stereo not drawn) | inconclusive: 3.66 µM [falling, partial curve, poor fit] | –
40 | C/C(N)=C(/C#N)C(=O)CSc1nnc(Nc2cccc(C)c2)s1 | inconclusive: 6.51 µM [activator, single point] and inconclusive: 8.2 µM [activator, partial curve] | –
41 | O=C(CCc1ccccc1)c1ccc2c(c1)OCCCO2 | inconclusive: 9.2 µM [activator, partial curve] | –
42 | COc1ccc(CC(=O)NNc2ncnc3c2cnn3C)cc1OC | – | inactive: -9.65%

Row | SMILES | Potency | activity change, negative = inhibition
43 | CCc1nnc(NC(=O)C23CC4CC(CC(C4)C2)C3)s1 | inconclusive: 5.8 µM [activator, partial curve, poor fit] | –
44 | CCN1CCN(c2cc(C)c3cc(NC(=O)c4cccc(OC)c4)ccc3n2)CC1 | inconclusive: 32.6 µM [falling, partial curve, poor fit] | –
45 | COc1cccc(OC)c1C(=O)NC(=S)NCc1ccco1 | inconclusive: 0.411 µM [activator, full curve, poor fit] | –
46 | Clc1nc2ccccc2cc1/C=N/Nc1nc2ccccc2[nH]1 | inconclusive: 0.13 µM [activator, full curve, poor fit] | –
47 | Cc1[nH]c2ccc(C(=O)N3CCN(c4ccccc4F)CC3)cc2c1C | – | inactive: 13%
48 | Cc1c(OC(C)C(=O)NCC(O)c2ccccc2)ccc2c3c(c(=O)oc12)CCCC3 (stereo not drawn) | inconclusive: 20.6 µM [falling, partial curve] | –
49 | CC(C)c1nc2sc3ccccc3c(=O)c2c(=O)n1Cc1ccccc1 | active: 25.9 µM | –
50 | C/C(=N\NC(=O)c1ccccc1)c1ccc(N2CCCCC2)cc1 | inconclusive: 11.6 µM [activator, partial curve] | –
51 | Cc1c(C(=O)N2CCc3ccccc3C2)oc2ccc(S(=O)(=O)N3CC(C)CC(C)C3)cc12 (stereo not drawn) | inconclusive: 18.4 µM [falling, single point] | –
52 | CCOC(=O)c1c(C)[nH]c2c1-c1ccccc1C(=O)C2=O | inconclusive: 20.6 µM [falling, single point] | –
53 | N/C(Cc1cccs1)=N\OC(=O)COc1ccc(Cl)cc1Cl | inconclusive: 11.6 µM [activator, partial curve, poor fit] | –
54 | C/C(=N\NC(=O)c1nn(C)c(C)c1Br)c1ccc(NC(=O)c2ccc(C)s2)cc1 | inconclusive: 14.6 µM [activator, partial curve] | –
55 | CCOC(=O)Cn1nnnc1CN(Cc1ccc(OC)cc1)Cc1cc2cc(C)ccc2[nH]c1=O | – | inactive: -0.71%
56 | COC(=O)c1ccccc1NC(=O)CN(C)S(=O)(=O)c1ccc(OC)c(C)c1 | inconclusive: 29.1 µM [falling, single point] | –
57 | N/C(Cn1cncn1)=N\OC(=O)c1ccc(Cl)cc1 | inconclusive: 23.1 µM [falling, single point] | –
58 | CCn1c(=O)c(C(=O)CN2CCN(S(=O)(=O)c3cc(C)ccc3C)CC2)c(N)n(Cc2ccccc2)c1=O | inconclusive: 20.6 µM [falling, single point] | –
59 | CCc1ccc(NC(=O)CSc2nc3nc(C)cc(C)n3n2)cc1 | inconclusive: 29.1 µM [falling, single point] | –
60 | CCC(=O)N1c2ccccc2NC2=C(C(=O)CCC2)C1c1ccc(N(C)C)cc1 (stereo not drawn) | – | inactive: 0.105%
61 | COc1cc(/C=C/C(C)=O)cc(OC)c1OC | – | inactive: -23.5%
62 | COc1ccc(CCNC(=O)c2ccc3c(c2)CCN3S(=O)(=O)c2ccccc2)cc1 | inconclusive: 11.6 µM [falling, single point] | –
63 | CCOc1cc(CNC(=O)c2cc(-c3ccccc3)n[nH]2)cc(OCC)c1OCC | inconclusive: 18.4 µM [activator, single point] | –
